Among all 320,000 compounds or so, about 2,100 (0.66%) were called active. This list was built around the results that the source calls inconclusive (neither active nor inactive); the mix of calls is not that of the screen. Calls come from the whole dose curve; as a rule, active = well fitted inhibition curve with a large enough effect in the signal ratio, with a control signal flat (not every such curve was filed as active); inconclusive = small, poorly fitted or top-dose-only effect, or effect the other way, or a change in a side signal; inactive = flat fitted curve, though single readings scatter; the % refers to the signal ratio. Potencies beside an inconclusive call are fits to weak or partial responses and may not hold up.
Assay: qHTS Assay for Lipid Storage Modulators in Drosophila S3 Cells
Conditions: BODIPY lipid droplet fluorescence, 18-24 h, cells fed with added oleic acid; lipid storage change, negative = inhibition: at 46.1 µM (top of the series) unless noted
How it was run: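 Laser-scanning cytometry quantifies lipid droplet accumulation (500–530 nm total intensity; droplet/cell object ratio) in oleic acid-fed (400 uM added) Drosophila S3 cells treated with a concentration series. 20 uM Triacsin C defined 100% inhibition.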
% is set by controls: 0 for no effect and ±100 for the full control effect; potency is the fitted concentration of half-maximal effect.

For CCCc1cc(=O)oc2c(CN3CCN(C)CC3)c(O)ccc12, which lipid storage change, negative = inhibition is on record?
The lipid storage change, negative = inhibition was inconclusive: 15.2%.

Which lipid storage change, negative = inhibition does the source give for COC(=O)NCC(C)OC(=O)Nc1cccc(Cl)c1 (stereo not drawn) here?
Its lipid storage change, negative = inhibition is inconclusive: 31.7%.

Which lipid storage change, negative = inhibition does the source give for CCC(=O)Nc1ccc(NC(=O)c2cccc3ccccc23)cc1 here?
The lipid storage change, negative = inhibition was inconclusive: 19.5%.

Which lipid storage change, negative = inhibition does the source give for O=C(O)CCCC(=O)Nc1ccn(-c2ccccc2)n1 here?
The lipid storage change, negative = inhibition was inconclusive: -0.373%.

Which lipid storage change, negative = inhibition does the source give for CN(C)c1cc(N/N=C/c2ccc(Cl)cc2)nc(N(C)C)n1 here?
Its lipid storage change, negative = inhibition is inconclusive: -15.9%.

Which lipid storage change, negative = inhibition does the source give for O=C(OCCN1C(=O)c2cccc3c(N4CCOCC4)ccc(c23)C1=O)c1ccccc1Cl here?
The lipid storage change, negative = inhibition was inconclusive: -43%.

Which “lipid storage change, negative = inhibition” value does the source give for NS(=O)(=O)c1cccc(NC(=O)COC(=O)C2(c3cccc(F)c3)CCCC2)c1 here?
Its value is inactive: 14.4%.

For CCN(CC)CCNC(=O)c1ccccc1C(=O)c1ncc[nH]1, which “outcome” value is on record?
The value was “inactive [at 46.1 µM]”.

Which lipid storage change, negative = inhibition does the source give for Cn1cc(CN2CCCC(C(=O)Nc3cccc(-n4cccn4)c3)C2)cn1 (stereo not drawn) here?
The lipid storage change, negative = inhibition was inconclusive: 69.8%.

With CC(=O)NC(CC(=O)Nc1nc(-c2ccccc2)c(C(C)=O)s1)c1ccccc1 (stereo not drawn) as the molecule, how does the lipid storage change, negative = inhibition read?
Its lipid storage change, negative = inhibition is inconclusive: -74.5%.

Which Potency does the source give for C=CCn1c(Cc2csc(N)n2)nnc1SCC(=O)OCC here?
The Potency was inconclusive: 23.1 µM [falling, single point].

With Cc1nc2ccc(C(=O)N3CCSCC3)cc2s1 as the molecule, how does the Potency read?
Its Potency is inconclusive: 0.259 µM [falling, full curve, poor fit].

For CC(C)Sc1nc2ccccc2n1CC(N)=O, which Potency is on record?
Its Potency is inconclusive: 4.11 µM [falling, full curve, poor fit].

For O=c1cc(CN2CCN(Cc3ccc(F)cc3)C(CCO)C2)[nH]c2ccccc12 (stereo not drawn), which lipid storage change, negative = inhibition is on record?
Its lipid storage change, negative = inhibition is inconclusive: 31.2%.

For Cc1ccc(S(=O)(=O)NCC(=O)OCC(=O)N(C)C2CCCCC2)cc1, which Potency is on record?
Its Potency is inconclusive: 2.06 µM [activator, full curve].

With CCOP(=O)(C1=C(O)C(=O)C(C(C)(C)C)=CC1=O)c1ccccc1 (stereo not drawn) as the molecule, how does the Potency read?
Its Potency is inconclusive: 29.1 µM [cytotoxic, single point].

Which lipid storage change, negative = inhibition does the source give for CC(c1ccco1)N(C(=O)c1ccc(Cl)s1)c1ccccn1 (stereo not drawn) here?
Its lipid storage change, negative = inhibition is inconclusive: 15%.

With Cc1cc(C)cc(OCC(=O)Nc2ccc(F)cc2)c1 as the molecule, how does the lipid storage change, negative = inhibition read?
Its lipid storage change, negative = inhibition is inconclusive: -24.4%.

Which Potency does the source give for CC1CCN(C(=O)c2ccc(CSc3ccc(Cl)cc3)cc2)CC1 here?
The Potency was inconclusive: 18.4 µM [activator, partial curve].

Which lipid storage change, negative = inhibition does the source give for Cc1[nH]c2ccccc2c1SCc1nnc(SCc2ccccc2)n1C here?
The lipid storage change, negative = inhibition was inconclusive: -24.5%.

For Cn1c(=O)[nH]c(=O)c2c1nc(NN)n2CCOc1ccccc1, which lipid storage change, negative = inhibition is on record?
Its lipid storage change, negative = inhibition is inconclusive: 11.4%.

Which lipid storage change, negative = inhibition does the source give for COCCn1c(=NC(=O)CCS(=O)(=O)c2ccccc2)sc2cc(F)ccc21 here?
Its lipid storage change, negative = inhibition is inconclusive: -116%.

With CCC(C)(C)NC(=O)c1ccc2c(c1)N(CC(=O)OC)C(=O)C(C)(C)O2 as the molecule, how does the Potency read?
Its Potency is inconclusive: 1.3 µM [falling, full curve].

With CCN1CCN(CCNC(=O)c2cc(Cl)c(NC(=O)C3=C(C)OCCS3)cc2OC)CC1 as the molecule, how does the Potency read?
Its Potency is inconclusive: 1.84 µM [activator, partial curve, poor fit].

For CC(C)Cn1cnc2c(N)nc3ccccc3c21, which lipid storage change, negative = inhibition is on record?
Its lipid storage change, negative = inhibition is inconclusive: 3.48%.

Which lipid storage change, negative = inhibition does the source give for Cn1nnnc1SCC(=O)Nc1ccc(Oc2ccc(Cl)cc2)cc1 here?
Its lipid storage change, negative = inhibition is inconclusive: 22.8%.

For O=C(NCCN=C1NS(=O)(=O)c2ccccc21)c1ccccc1, which Potency is on record?
Its Potency is inconclusive: 29.1 µM [falling, single point].

For CCN(Cc1ccccc1)C(=O)COC(=O)c1c(C)nsc1NC, which lipid storage change, negative = inhibition is on record?
The lipid storage change, negative = inhibition was inconclusive: 9.25%.

For CC1(C(=O)NCc2ccccn2)C=CCN1C(=O)c1ccccc1 (stereo not drawn), which lipid storage change, negative = inhibition is on record?
The lipid storage change, negative = inhibition was inconclusive: 0.748%.

Which lipid storage change, negative = inhibition does the source give for O=C(Nc1ccccc1C(F)(F)F)N1CCN(c2ccccn2)CC1 here?
The lipid storage change, negative = inhibition was inconclusive: -3.24%.

With CC(C)[C@H](NC(=O)OC(C)(C)C)C(=O)N/N=C/c1cccc2nccnc12 as the molecule, how does the Potency read?
The Potency was inconclusive: 0.146 µM [falling, full curve, poor fit].

Which Potency does the source give for COC(=O)c1cc(NC(=O)CN(c2ccccc2OC)S(=O)(=O)c2ccccc2)ccc1Cl here?
Its Potency is inconclusive: 0.116 µM [falling, partial curve, poor fit].

For COC(=O)C1=C(C)N2C(=O)CSC2=NC1c1ccc2c(c1)OCO2 (stereo not drawn), which lipid storage change, negative = inhibition is on record?
The lipid storage change, negative = inhibition was inconclusive: 54.9%.

With Cc1c(C(=O)Nc2nc3ccccc3[nH]2)oc2ccc(Br)cc12 as the molecule, how does the lipid storage change, negative = inhibition read?
The lipid storage change, negative = inhibition was inconclusive: -32.9%.

With O=C(NC1CCC(CC2CCC(NC(=O)C(Cl)Cl)CC2)CC1)C(Cl)Cl (stereo not drawn) as the molecule, how does the Potency read?
Its Potency is inconclusive: 4.61 µM [falling, single point].

With COc1cc(OC)cc(C(=O)NC(C)CNc2ccc(Cl)cc2[N+](=O)[O-])c1 (stereo not drawn) as the molecule, how does the Potency read?
The Potency was active: 16.4 µM.

For CCc1ccccc1N1C(=O)c2ccccc2S1(=O)=O, which lipid storage change, negative = inhibition is on record?
The lipid storage change, negative = inhibition was inconclusive: 17.4%.

Which Potency does the source give for CCCN1CCN(C(=O)C(C)n2nc(C)c3sc4ccccc4c3c2=O)CC1 (stereo not drawn) here?
Its Potency is inconclusive: 0.461 µM [activator, full curve].

— PubChem BioAssay AID2685 (National Center for Advancing Translational Sciences (NCATS), 2010)
